{"source": "patent US8187596", "binders": {"B1": {"name": "recombinant his6-tagged murine IL-1RAcP (receptor, UniProt Q61730 21-367, looked up, not shown: small tags and cut ends)", "chain": "SERCDDWGLDTMRQIQVFEDEPARIKCPLFEHFLKYNYSTAHSSGLTLIWYWTRQDRDLEEPINFRLPENRISKEKDVLWFRPTLLNDTGNYTCMLRNTTYCSKVAFPLEVVQKDSCFNSAMRFPVHKMYIEHGIHKITCPNVDGYFPSSVKPSVTWYKGCTEIVDFHNVLPEGMNLSFFIPLVSNNGNYTCVVTYPENGRLFHLTRTVTVKVVGSPKDALPPQIYSPNDRVVYEKEPGEELVIPCKVYFSFIMDSHNEVWWTIDGKKPDDVTVDITINESVSYSSTEDETRTQILSIKKVTPEDLRRNYVCHARNTKGEAEQAAKVKQKVIPPRYTVELACGFGAT"}, "B2": {"name": "murine IL-33 (ligand, UniProt Q8BVZ5 109-266, looked up)", "chain": "SIQGTSLLTQSPASLSTYNDQSVSFVLENGCYVINVDDSGKDQEQDQVLLRYYESPCPASQSGDGVDGKKLMVNMSPIKDTDIWLHANDKDYSVELQRGDVSPPEQAFFVLHKKSSDFVSFECKNLPGTYIGVKDNQLALVEEKDESCNNIMFKLSKI"}}, "key": {"[1]": {"target": "T1, complex of plate-bound murine ST2-Fc and murine IL-33 (murine) (UniProt P14719+Q8BVZ5)", "T1 sequence (looked up) 1": "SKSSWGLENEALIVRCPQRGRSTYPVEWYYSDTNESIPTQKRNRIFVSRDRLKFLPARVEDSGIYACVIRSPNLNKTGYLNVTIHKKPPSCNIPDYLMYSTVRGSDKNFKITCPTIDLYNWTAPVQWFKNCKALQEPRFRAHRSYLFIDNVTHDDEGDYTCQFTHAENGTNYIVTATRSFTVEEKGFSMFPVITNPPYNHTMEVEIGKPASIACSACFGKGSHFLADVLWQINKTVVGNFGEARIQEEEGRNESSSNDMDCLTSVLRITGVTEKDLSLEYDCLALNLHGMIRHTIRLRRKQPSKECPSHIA", "T1 sequence (looked up) 2": "B2 chain", "assay": "receptor-ligand complex ELISA, ST2 immobilized on the plate (FIG. 8A)"}, "[2]": {"target": "T1, complex of plate-bound murine ST2-Fc and murine IL-33 (murine)", "assay": "receptor-ligand complex ELISA: ST2-Fc coated, his6-IL-1RAcP 3 ug/ml in solution, IL-33 titrated, anti-his6-peroxidase detection"}, "[3]": {"target": "T2, murine ST2-Fc fusion protein (R&D Systems) (murine) (UniProt P14719)", "T2 sequence (looked up)": "T1 sequence (looked up) 1", "assay": "receptor-ligand complex ELISA: IL-33 titrated onto coated ST2-Fc with his6-IL-1RAcP present; the readout is captured his6-IL-1RAcP (ternary complex)"}}, "note": "These are yes or no findings as the source states them, for the method shown. Some results given as binding are weak or reduced against the parent protein; the word gives no strength. Tags and fused reporters may be left off the sequences shown.", "data": [{"binder": "B1", "values": [{"measurement": "binding", "setting": "[1]", "result": "binds"}, {"measurement": "binding", "setting": "[2]", "result": "binds"}]}, {"binder": "B2", "values": [{"measurement": "binding", "setting": "[3]", "result": "binds"}]}]}
